Laboratory results from PMC10217940.

Molecular target: IPT, yeast two-hybrid fusion (Arabidopsis)
Assay: two-hybrid; split-ubiquitin-based yeast two-hybrid (SUB-Y2H, Dualsystems); IMPs in the pGADT7 bait vector, EIN2C in the pGBKT7 prey vector

- binding: no binding
B1: EIN2C (EIN2^454–1294), yeast two-hybrid fusion (domain or fragment, UniProt Q9S814 454-1294)
chain: LWLAATPLKSASNRAEAQIWNMDAQNALSYPSVQEEEIERTETRRNEDESIVRLESRVKDQLDTTSVTSSVYDLPENILMTDQEIRSSPPEERELDVKYSTSQVSSLKEDSDVKEQSVLQSTVVNEVSDKDLIVETKMAKIEPMSPVEKIVSMENNSKFIEKDVEGVSWETEEATKAAPTSNFTVGSDGPPSFRSLSGEGGSGTGSLSRLQGLGRAARRHLSAILDEFWGHLYDFHGQLVAEARAKKLDQLFGTDQKSASSMKADSFGKDISSGYCMSPTAKGMDSQMTSSLYDSLKQQRTPGSIDSLYGLQRGSSPSPLVNRMQMLGAYGNTTNNNNAYELSERRYSSLRAPSSSEGWEHQQPATVHGYQMKSYVDNLAKERLEALQSRGEIPTSRSMALGTLSYTQQLALALKQKSQNGLTPGPAPGFENFAGSRSISRQSERSYYGVPSSGNTDTVGAAVANEKKYSSMPDISGLSMSARNMHLPNNKSGYWDPSSGGGGYGASYGRLSNESSLYSNLGSRVGVPSTYDDISQSRGGYRDAYSLPQSATTGTGSLWSRQPFEQFGVAERNGAVGEELRNRSNPINIDNNASSNVDAEAKLLQSFRHCILKLIKLEGSEWLFGQSDGVDEELIDRVAAREKFIYEAEAREINQVGHMGEPLISSVPNCGDGCVWRADLIVSFGVWCIHRVLDLSLMESRPELWGKYTYVLNRLQGVIDPAFSKLRTPMTPCFCLQIPASHQRASPTSANGMLPPAAKPAKGKCTTAVTLLDLIKDVEMAISCRKGRTGTAAGDVAFPKGKENLASVLKRYKRRLSNKPVGMNQDGPGSRKNVTAYGSLG

Results are given in words; binding and its absence hold for the method and conditions named. Where a sequence is shown, tags or fusion partners need not be part of it.
